Measurements as given in PMC12667515.

How the values were obtained:
[1] = target: T1, cLuc–TGB1 (BSMV TGB1) (barley stripe mosaic virus) (UniProt P04867); assay: split reporter; firefly luciferase complementation imaging (LCI, split-LUC); nLuc and cLuc fusions co-infiltrated into N. benthamiana leaves, 48 hpi, 1 mmol/L luciferin
T1 sequence: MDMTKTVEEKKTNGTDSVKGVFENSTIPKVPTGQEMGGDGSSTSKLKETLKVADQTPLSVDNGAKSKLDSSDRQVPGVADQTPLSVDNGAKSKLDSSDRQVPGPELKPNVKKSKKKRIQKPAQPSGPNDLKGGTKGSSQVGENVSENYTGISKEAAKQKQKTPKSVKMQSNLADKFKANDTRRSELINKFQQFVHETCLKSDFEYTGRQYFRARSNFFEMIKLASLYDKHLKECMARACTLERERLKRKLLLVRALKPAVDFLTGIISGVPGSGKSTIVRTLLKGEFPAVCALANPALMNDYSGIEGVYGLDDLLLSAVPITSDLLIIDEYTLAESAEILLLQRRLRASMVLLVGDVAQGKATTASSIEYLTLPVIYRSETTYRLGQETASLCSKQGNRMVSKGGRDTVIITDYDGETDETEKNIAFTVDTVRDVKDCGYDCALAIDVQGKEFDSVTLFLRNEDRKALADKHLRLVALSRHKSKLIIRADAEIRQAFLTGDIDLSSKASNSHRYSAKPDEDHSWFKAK

[2] = target: T2, YFPc–TGB1 (BSMV TGB1 fused with the C‐terminal fragment of YFP) (barley stripe mosaic virus) (UniProt P04867); assay: split reporter; BiFC with YFPn and YFPc fusions co-infiltrated into N. benthamiana leaves, confocal microscopy at 48 hpi; TGB1 alone or expressed from the BSMV infectious cDNA
T2 sequence: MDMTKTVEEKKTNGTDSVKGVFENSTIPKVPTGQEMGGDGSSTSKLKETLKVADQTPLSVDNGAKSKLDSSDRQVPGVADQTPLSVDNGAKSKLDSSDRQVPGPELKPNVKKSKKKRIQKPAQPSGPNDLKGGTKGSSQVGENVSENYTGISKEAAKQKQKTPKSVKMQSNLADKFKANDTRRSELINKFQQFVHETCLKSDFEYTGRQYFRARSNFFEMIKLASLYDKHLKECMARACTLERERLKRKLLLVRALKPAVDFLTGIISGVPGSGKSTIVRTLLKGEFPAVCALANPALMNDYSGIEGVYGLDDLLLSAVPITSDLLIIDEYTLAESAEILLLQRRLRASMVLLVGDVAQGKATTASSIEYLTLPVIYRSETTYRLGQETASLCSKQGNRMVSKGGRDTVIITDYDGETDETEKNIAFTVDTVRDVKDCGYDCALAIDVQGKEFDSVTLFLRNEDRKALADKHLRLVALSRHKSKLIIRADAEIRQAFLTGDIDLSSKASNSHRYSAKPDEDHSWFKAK

[3] = target: T3, TGB1–nLuc (BSMV TGB1) (barley stripe mosaic virus) (UniProt P04867); assay: split reporter; firefly luciferase complementation imaging (LCI, split-LUC); nLuc and cLuc fusions co-infiltrated into N. benthamiana leaves, 48 hpi, 1 mmol/L luciferin
T3 sequence: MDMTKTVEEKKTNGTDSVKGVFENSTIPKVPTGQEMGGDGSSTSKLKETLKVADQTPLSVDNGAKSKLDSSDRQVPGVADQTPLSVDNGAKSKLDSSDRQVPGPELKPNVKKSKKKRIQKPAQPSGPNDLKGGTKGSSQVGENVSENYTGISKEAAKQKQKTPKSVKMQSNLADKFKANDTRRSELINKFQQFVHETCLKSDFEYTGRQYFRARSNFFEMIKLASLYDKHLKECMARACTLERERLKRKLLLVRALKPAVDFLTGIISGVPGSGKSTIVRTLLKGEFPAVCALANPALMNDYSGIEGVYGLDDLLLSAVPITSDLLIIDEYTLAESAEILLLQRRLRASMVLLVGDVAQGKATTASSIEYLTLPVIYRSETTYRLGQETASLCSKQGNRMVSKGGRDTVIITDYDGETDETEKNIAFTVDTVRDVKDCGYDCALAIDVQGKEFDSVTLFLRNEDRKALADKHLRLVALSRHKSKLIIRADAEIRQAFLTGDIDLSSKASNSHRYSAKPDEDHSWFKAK

[4] = target: T4, BSMV‐encoded TGB1 of the HvARI8 Co‐IP assay (tag not stated) (barley stripe mosaic virus) (UniProt P04867); assay: co-IP; constructs co-infiltrated into N. benthamiana leaves, 48 hpi; lysis in 25 mM Tris-HCl pH 7.5, 150 mM NaCl, 1 mM EDTA, 10% glycerol; anti-Flag or anti-GFP agarose beads, 4°C, 3–4 h; washes with 0.1% NP-40; blots with anti-FLAG or anti-GFP
T4 sequence: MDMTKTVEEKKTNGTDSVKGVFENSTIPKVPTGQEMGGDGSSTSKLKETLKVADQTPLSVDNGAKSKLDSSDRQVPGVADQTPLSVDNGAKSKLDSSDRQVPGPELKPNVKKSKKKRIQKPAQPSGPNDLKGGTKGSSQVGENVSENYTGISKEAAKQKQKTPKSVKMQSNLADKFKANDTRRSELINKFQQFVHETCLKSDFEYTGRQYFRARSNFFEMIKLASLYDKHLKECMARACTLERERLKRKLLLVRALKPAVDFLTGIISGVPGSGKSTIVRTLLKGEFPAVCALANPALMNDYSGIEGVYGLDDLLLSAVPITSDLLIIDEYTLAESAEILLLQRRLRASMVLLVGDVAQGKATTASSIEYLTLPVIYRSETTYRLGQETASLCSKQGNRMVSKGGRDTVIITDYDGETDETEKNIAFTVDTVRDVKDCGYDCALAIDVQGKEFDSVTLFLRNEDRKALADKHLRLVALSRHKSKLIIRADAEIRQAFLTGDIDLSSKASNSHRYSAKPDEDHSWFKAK

[5] = target: T5, YFPc–TGB1 expressed from the BSMV infectious cDNA (BSMV_(YFPc–TGB1)) (barley stripe mosaic virus) (UniProt P04867); assay: split reporter; BiFC with YFPn and YFPc fusions co-infiltrated into N. benthamiana leaves, confocal microscopy at 48 hpi; TGB1 alone or expressed from the BSMV infectious cDNA
T5 sequence: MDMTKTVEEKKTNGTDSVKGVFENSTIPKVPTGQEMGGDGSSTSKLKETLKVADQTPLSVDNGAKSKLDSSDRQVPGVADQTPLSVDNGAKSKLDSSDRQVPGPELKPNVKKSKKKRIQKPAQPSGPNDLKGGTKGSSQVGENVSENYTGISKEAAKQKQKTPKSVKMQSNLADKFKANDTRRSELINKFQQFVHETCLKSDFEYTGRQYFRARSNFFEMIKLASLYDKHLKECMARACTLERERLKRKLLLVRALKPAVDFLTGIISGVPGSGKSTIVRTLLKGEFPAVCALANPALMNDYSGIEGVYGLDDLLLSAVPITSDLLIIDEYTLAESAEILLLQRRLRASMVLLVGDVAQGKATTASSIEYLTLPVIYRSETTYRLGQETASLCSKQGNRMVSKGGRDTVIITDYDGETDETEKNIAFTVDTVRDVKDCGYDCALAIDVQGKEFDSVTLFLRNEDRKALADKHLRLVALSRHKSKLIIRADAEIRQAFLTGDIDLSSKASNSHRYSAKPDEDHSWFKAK

[6] = target: T6, GST‐tagged TGB1 (BSMV TGB1) (barley stripe mosaic virus) (UniProt P04867); assay: pull-down; 6 µg GST-tagged TGB1 with 5 µg ARI8 or His-tagged GFP on GST agarose beads, 3 h, 4°C; 50 mM Tris-HCl pH 7.5-8.0, 200 mM NaCl, 5 mM DTT, 0.2% glycerol, 0.6% Triton X-100; washes with 250 mM NaCl; blots with anti-GST or anti-His; both purified
T6 sequence: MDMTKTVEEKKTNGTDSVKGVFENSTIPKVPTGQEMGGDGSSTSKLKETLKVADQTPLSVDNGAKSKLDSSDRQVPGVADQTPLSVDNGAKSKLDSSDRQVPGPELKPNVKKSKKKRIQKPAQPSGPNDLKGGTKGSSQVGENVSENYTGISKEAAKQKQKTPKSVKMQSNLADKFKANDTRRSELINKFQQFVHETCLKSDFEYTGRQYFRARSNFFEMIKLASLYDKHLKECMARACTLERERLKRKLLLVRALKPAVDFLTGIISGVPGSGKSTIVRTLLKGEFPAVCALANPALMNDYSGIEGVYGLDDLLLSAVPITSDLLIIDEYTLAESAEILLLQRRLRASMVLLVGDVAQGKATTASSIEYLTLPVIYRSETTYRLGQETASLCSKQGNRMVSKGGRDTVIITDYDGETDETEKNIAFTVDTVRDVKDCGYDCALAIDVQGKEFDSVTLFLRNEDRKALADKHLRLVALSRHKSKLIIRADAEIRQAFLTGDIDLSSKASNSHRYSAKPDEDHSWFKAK

[7] = target: ARI8–3×Flag (N. benthamiana ARI8) (Nicotiana benthamiana); assay: co-IP; constructs co-infiltrated into N. benthamiana leaves, 48 hpi; lysis in 25 mM Tris-HCl pH 7.5, 150 mM NaCl, 1 mM EDTA, 10% glycerol; anti-Flag or anti-GFP agarose beads, 4°C, 3–4 h; washes with 0.1% NP-40; blots with anti-FLAG or anti-GFP

## ARI8–nLuc (N. benthamiana ARI8) (Nicotiana benthamiana) (enzyme)
[1]
  binding: binds

## YFPn–HvARI8 (barley ARI8 in the BiFC vector) (Hordeum vulgare) (enzyme)
[2]
  binding: binds

## cLuc–ARI8^C311S (Nicotiana benthamiana) (enzyme)
[3]
  binding: binds

## HvARI8 (barley ARI8) of the Co‐IP assay (Hordeum vulgare) (enzyme)
[4]
  binding: binds

## ARI8^C311S of the BiFC assay (Nicotiana benthamiana) (enzyme)
[2]
  binding: binds

## YFPn–ARI8 (ARI8 fused with the N‐terminal fragment of yellow fluorescent protein) (Nicotiana benthamiana) (enzyme)
[5]
  binding: binds
[2]
  binding: binds

## His‐tagged ARI8 (N. benthamiana ARI8) (Nicotiana benthamiana) (enzyme)
[6]
  binding: binds

B1: GFP–TGB1 (GFP‐tagged BSMV TGB1) (protein, UniProt P04867 1-528)
chain: MDMTKTVEEKKTNGTDSVKGVFENSTIPKVPTGQEMGGDGSSTSKLKETLKVADQTPLSVDNGAKSKLDSSDRQVPGVADQTPLSVDNGAKSKLDSSDRQVPGPELKPNVKKSKKKRIQKPAQPSGPNDLKGGTKGSSQVGENVSENYTGISKEAAKQKQKTPKSVKMQSNLADKFKANDTRRSELINKFQQFVHETCLKSDFEYTGRQYFRARSNFFEMIKLASLYDKHLKECMARACTLERERLKRKLLLVRALKPAVDFLTGIISGVPGSGKSTIVRTLLKGEFPAVCALANPALMNDYSGIEGVYGLDDLLLSAVPITSDLLIIDEYTLAESAEILLLQRRLRASMVLLVGDVAQGKATTASSIEYLTLPVIYRSETTYRLGQETASLCSKQGNRMVSKGGRDTVIITDYDGETDETEKNIAFTVDTVRDVKDCGYDCALAIDVQGKEFDSVTLFLRNEDRKALADKHLRLVALSRHKSKLIIRADAEIRQAFLTGDIDLSSKASNSHRYSAKPDEDHSWFKAK
[7]
  binding: binds

Results are given in words; binding and its absence hold for the method and conditions named. Binding calls can cover weak binding; strength is not graded here. For part of these data: Tags and fused reporters may be left off the sequences shown. For part of these data: Binding seen in cells or lysates may run through a third protein.
